Reference: PubChem BioAssay AID493014 (National Center for Advancing Translational Sciences (NCATS), 2011)
About 170 (0.05%) of roughly 340,000 compounds were called active. The shares of active, inactive and inconclusive entries below differ from those in the screen. Calls follow the shape of the dose curve; as a rule, active = well fitted inhibition curve with a large enough effect in the signal ratio, with a control signal flat (not every such curve was filed as active); inconclusive = small, poorly fitted or top-dose-only effect, or effect the other way, or a change in a side signal; inactive = flat fitted curve, though single readings scatter; the % refers to the signal ratio. Where the call is inconclusive, the potency comes from a doubtful curve fit.

Assay: qHTS Assay to Find Inhibitors of Chronic Active B-Cell Receptor Signaling;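 as to activity change, negative = inhibition: plate controls were basal doxycycline-induced cells for no effect and cells given 10 µM MG132 for full effect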
Details: ABC-DLBCL IkBa-CBG/CBR reporter, luminescence ratio (green luciferase fused to IkBa over red control in TMD8 lymphoma cells), 4 h; activity change, negative = inhibition: at 46.1 µM (top of the series) unless noted
Summary of the method: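 Compounds up to 46 uM were incubated four hours with TMD8 cells whose green CBG68 luciferase is fused to IkappaBalpha; red CBR luminescence normalised the signal, and concentration-effect curves were fitted to fusion, red and ratio data.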
Potency is read from the fitted curve at half-maximal effect.

SMILES	activity change, negative = inhibition	Potency
Cc1cc(C)cc(-n2c(N)c(C(=O)Nc3c(C)n(C)n(-c4ccccc4)c3=O)c3nc4ccccc4nc32)c1	inconclusive: -1.53%	
CCSC1=C(C#N)C(c2cccc(OC)c2)CC(=O)N1 (centres undefined)	inconclusive: -0.989%	
Cc1ccc(NC(=O)c2ccc(OC(=O)CCN3C(=O)c4ccccc4C3=O)cc2)cc1		inconclusive: 0.82 µM [falling, full curve]
CC1(C)CC(=O)C2=C(C1)Oc1ncn3nc(-c4cccnc4)nc3c1C2c1ccccc1 (centres undefined)	inconclusive: 8.51%	
N/C(=N\OC(=O)c1ccc(F)cc1)c1cccc([N+](=O)[O-])c1	inconclusive: 11.8%	
O=C(CSc1n[nH]c(=O)n1C1CC1)Nc1ccc(F)c(Cl)c1		inconclusive: 29.1 µM [falling, partial curve, poor fit]
CC1CCN(CCOCCSc2ccc(Cl)cc2)CC1	inactive	
CN(C)c1nc(=Nc2cccc(Cl)c2)ss1		inconclusive: 11.2 µM [cytotoxic, partial curve]
CCCCOc1ccc(S(=O)(=O)NNC(=O)c2cc3ccccc3o2)cc1	inactive	
CCOc1ccc(C2=NNC(c3cccs3)=Nc3ccc(OC)cc32)cc1		inconclusive: 23.1 µM [falling, single point]
CN(CC(=O)Nc1ccc(F)c(F)c1F)C(=O)CC1CCCCC1	inconclusive: 5.68%	
COc1cccc(C(c2c(NC(=O)c3ccco3)sc(C)c2C)N2CCOCC2)c1 (centres undefined)	inconclusive: -2.86%	
CC1CCN(C(=S)SCc2nc(N)nc(Nc3ccccc3)n2)CC1	inactive	
Cn1c(=O)n(CCc2ccccc2)c(=O)c2c1nc1n2CCN1Cc1ccco1	inconclusive: 12.6%	
Cc1cc(C)nc(-n2nc(C)cc2NC(=O)c2ccc(S(=O)(=O)N3CCOCC3)cc2)n1	inconclusive: -7.41%	
CC1(C)CC(=O)C(N=Nc2cc(Cl)c(Cl)c(Cl)c2)=C(O)C1	inactive	
CC(C)OC(=O)c1c(NC(=O)c2ccco2)sc2c1CCCCC2		inconclusive: 2.31 µM [falling, partial curve, poor fit]

SMILES	activity change, negative = inhibition	Potency
O=C(CSc1ncn[nH]1)c1cccc([N+](=O)[O-])c1		inconclusive: 25.9 µM [falling, single point]
O=C(N/N=C/c1cc([N+](=O)[O-])cc([N+](=O)[O-])c1O)C(O)(c1ccccc1)c1ccccc1	inactive	
Cc1ccc(NC(=O)NC2CCCc3ccccc32)cc1 (centres undefined)	inconclusive: -21.6%	
O=C(CCCOc1ccc(Cl)cc1Cl)NCC1CCCO1 (centres undefined)	inconclusive: 5.3%	
COc1ccccc1N1CCN(C(=O)Nc2ccc([N+](=O)[O-])cc2)CC1	inconclusive: 2.3%	
COC(=O)c1sccc1NC(=O)COc1ccccc1Cl		inconclusive: 8.2 µM [falling, partial curve]
O=C(O)Cc1nn(Cc2ccc(Cl)cc2)c(=O)c2ccccc12	inconclusive: 2.39%	
CCOc1ccccc1N(CC(=O)Nc1ccccc1C(=O)N1CCCC1)S(C)(=O)=O	inconclusive: 6.09%	
C=CCN(C(=O)COC(=O)c1cc[n+]([O-])cc1)c1nc(-c2ccccc2)cs1	inconclusive: 1.76%	
COc1ccccc1NS(=O)(=O)c1cccc(C(=O)N/N=C/c2ccc([N+](=O)[O-])o2)c1	inconclusive: -3.97%	
O=C(O)CN1C(=O)/C(=C\c2cn(CC(=O)N3CCOCC3)c3ccccc23)SC1=S	inactive	
COc1ccc(C2C(C#N)=C(N)N(Nc3ccccc3)C3=C2C(=O)CC(C)(C)C3)cc1C (centres undefined)	inconclusive: 7.55%	
O=c1c2c(nc3c(-c4ccccc4)c[nH]n13)CCC2		inconclusive: 11.2 µM [falling, partial curve, poor fit]
Cc1ccccc1NC(=O)Nc1nc2ccc(S(C)(=O)=O)cc2s1		inconclusive: 3.66 µM [falling, full curve]
CC1Oc2ccccc2C=C1/C=N\NC(=O)c1cccnc1 (centres undefined)		inconclusive: 35.5 µM [falling, single point]
Cc1ccc(CNC(=O)CSc2nc3ccccc3c(=O)n2CCCO)cc1	inactive	
CCN(CC)S(=O)(=O)c1ccc(-c2csc(C)n2)s1	inconclusive: 15.4%	

3 entries already listed, arranged by molecular weight, low to high:
SMILES	activity change, negative = inhibition	Potency
Cn1c(=O)n(CCc2ccccc2)c(=O)c2c1nc1n2CCN1Cc1ccco1	inconclusive: 12.6%	
Cc1ccc(CNC(=O)CSc2nc3ccccc3c(=O)n2CCCO)cc1	inactive	
COc1cccc(C(c2c(NC(=O)c3ccco3)sc(C)c2C)N2CCOCC2)c1 (centres undefined)	inconclusive: -2.86%	
